Reference: PubChem BioAssay AID200 (DTP/NCI, 2004)
The list is a part of this screen's results and no random one: it is rich in T/C values a quarter to a half above the control, in often repeated tests (any T/C) and in doses without a T/C. Other doses and runs of a compound stand elsewhere. T/C: endpoint of the treated group in % of that of the vehicle group. Some entries give survivors of the animals treated and no T/C: the source holds a T/C of zero for them, seemingly a mark for toxic or unscored doses. Some doses without a T/C left all or most animals alive at the check, yet need not have been tolerated: the source hardly ever lists a survival T/C far under the control, and the zero likely stands for such cases as well. Survivors were counted at the toxicity check, usually on the fifth day, unless a day is given; later deaths do not show. Schedules are NCI's codes, read here as Q, the interval in days (D) or hours (H), X, the number of doses. Some entries were tested several times; their values stand side by side, smallest first. Some structures stand for samples that the source files as different forms (salt, stereo form or complex); doses refer to the form tested. Where survival is the endpoint, this PubChem deposit counts one and a half times the control or more as active, and values a quarter to a half above the control carry no call in these data; other NCI protocols may use other cut-offs. Some T/C values are followed by the survivors on the day toxicity was checked, most often the fifth; without a count, all were alive then.

Tested on: B6C3F1 mice, B16 melanoma ip, median survival T/C
Test: NCI In Vivo Anticancer Drug Screen. Data for tumor model B16 Melanoma (intraperitoneal) in B6C3F1 mice
Conditions: T/C endpoint: median survival time, higher T/C = longer survival
Summary of the method: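 Values are T/C ratios: the measurement in treated animals divided by that in vehicle-treated controls, using survival or tumor size in mice carrying transplantable tumors.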

[1] = dose: 200.0 mg/kg/injection, schedule: Q01DX009 (ip), vehicle: suspension in saline
[2] = dose: 25.0 mg/kg/injection, schedule: Q01DX009 (ip), vehicle: saline with Tween-80
[3] = dose: 50.0 mg/kg/injection, schedule: Q01DX009 (ip), vehicle: saline with Tween-80
[4] = dose: 100.0 mg/kg/injection, schedule: Q01DX009 (ip), vehicle: saline with Tween-80
[5] = dose: 400.0 mg/kg/injection, schedule: Q01DX009 (ip), vehicle: saline with Tween-80
[6] = dose: 12.5 mg/kg/injection, schedule: Q01DX009 (ip), vehicle: saline with Tween-80
[7] = dose: 12.0 mg/kg/injection, schedule: Q01DX009 (ip), vehicle: Klucel (hydroxypropylcellulose) (HPC)
[8] = dose: 200.0 mg/kg/injection, schedule: Q01DX009 (ip), vehicle: saline with Tween-80
[9] = dose: 50.0 mg/kg/injection, schedule: Q01DX009 (ip), vehicle: saline
[10] = dose: 100.0 mg/kg/injection, schedule: Q01DX009 (ip), vehicle: saline
[11] = dose: 200.0 mg/kg/injection, schedule: Q01DX009 (ip), vehicle: saline

`O=C(CNC(=O)OCc1ccccc1)NCC(=O)NC(Cc1c[nH]c2ccccc12)C(=O)O` (centres undefined) was tested, and the survivor count (dose: 50.0 mg/kg/injection, schedule: Q01DX009 (ip), vehicle: suspension in saline) was 10 of 10 and the T/C [1] was 138 % of control.
`OCC1OC(n2cnc3c2NC=NC[C@H]3O)CC1O` (some centres undefined) was tested, and the survivor count (dose: 0.5 mg/kg/injection, schedule: Q01DX009 (ip), vehicle: saline) was 10 of 10, the survivor count (dose: 1.0 mg/kg/injection, schedule: Q01DX009 (ip), vehicle: saline) was 10 of 10 and the survivor count (dose: 2.0 mg/kg/injection, schedule: Q01DX009 (ip), vehicle: saline) was 10 of 10. The survivor count (dose: 4.0 mg/kg/injection, schedule: Q01DX009 (ip), vehicle: saline) was 10 of 10, the survivor count (dose: 8.0 mg/kg/injection, schedule: Q01DX009 (ip), vehicle: saline) was 10 of 10 and the survivor count (dose: 16.0 mg/kg/injection, schedule: Q01DX009 (ip), vehicle: saline) was 10 of 10.
In the case of `O=C(Nc1cccc2c(OC(=O)C(Cl)Cl)c(N=Nc3ccc(S(=O)(=O)Nc4nccs4)cc3)cc(N=Nc3ccc(S(=O)(=O)Nc4nccs4)cc3)c12)C(Cl)Cl` (tested in a mixture with another compound), the T/C [2] is reported as 125 % of control, the T/C [3] is reported as 141 % of control and the survivor count [4] is reported as 7 of 10 and 10 of 10.
In the case of `O=C1C(Cl)=C(Cl)C(=O)C2=C1C1c3ccccc3C2c2ccccc21`, the survivor count [5] is reported as 10 of 10.
For `c1ccc2c(c1)[As]=c1ccccc1=[As]2` (centres undefined), the T/C (dose: 12.0 mg/kg/injection, schedule: Q01DX009 (ip), vehicle: saline with Tween-80) was 127 % of control.
In the case of `S=C(N/N=C1/CCCC/C1=N/NC(=S)N1CCOCC1)N1CCOCC1`, the survivor count [6] is reported as 8 of 10 and the survivor count [2] is reported as 3 of 10.
In the case of `CC1=C(CC/C(C)=C/CCC2=CCC(C3=CC(=O)OC3O)OC2O)C(C)(C)CCC1` (centres undefined), the survivor count [7] is reported as 10 of 10.
With `NS(=O)(=O)OCCCCCCCOS(N)(=O)=O` the T/C [2] was 138 % of control, the survivor count [4] was 10 of 10 and the survivor count [8] was 10 of 10.
In the case of `NC(N)=O`, the survivor count (dose: 800.0 mg/kg/injection, schedule: Q01DX009 (ip), vehicle: saline) is reported as 3 of 10.
For `ClC1C(Cl)C(Cl)C(Cl)C(Cl)C1Cl` (centres undefined), the T/C [6] was 131 % of control and the survivor count [3] was 10 of 10.
In the case of `Cc1ccc2c(c1)n([O-])c1cc(Cl)ccc1[n+]2=O`, the T/C [4] is reported as 125 % of control [9 of 10 alive].
For `CCC(C(=O)O)C(=O)O.[NH-]CC1CCCC[N-]1.[Pt+2]`, the T/C [9] was 140 % of control, the T/C [10] was 129 % of control and the T/C (dose: 100.0 mg/kg/injection, schedule: Q01DX009 (ip), vehicle: suspension in saline) was 135 % of control [9 of 10 alive]. For the same compound, the survivor count [11] was 0 of 10, the survivor count [1] was 2 of 10 and the survivor count (dose: 400.0 mg/kg/injection, schedule: Q01DX009 (ip), vehicle: suspension in saline) was 1 of 10.
In the case of `CCOC(OCC)C(=O)OCC(=O)[C@]1(O)Cc2c(O)c3c(c(O)c2[C@@H](OC2CC(N)C(O)C(C)O2)C1)C(=O)c1c(OC)cccc1C3=O` (some centres undefined), the survivor count (dose: 4.0 mg/kg/injection, schedule: Q01DX009 (ip), vehicle: water) is reported as 9 of 10 and the survivor count (dose: 8.0 mg/kg/injection, schedule: Q01DX009 (ip), vehicle: water) is reported as 9 of 10 and 10 of 10.
`CCC(=O)[O][Bi]([c]1ccccc1)[c]1ccccc1` was tested, and the survivor count (dose: 50.0 mg/kg/injection, schedule: Q01DX009 (ip), vehicle: Klucel (hydroxypropylcellulose) (HPC)) was 6 of 10, the survivor count (dose: 100.0 mg/kg/injection, schedule: Q01DX009 (ip), vehicle: Klucel (hydroxypropylcellulose) (HPC)) was 0 of 10 and the survivor count (dose: 200.0 mg/kg/injection, schedule: Q01DX009 (ip), vehicle: Klucel (hydroxypropylcellulose) (HPC)) was 0 of 10. For the same compound, the survivor count (dose: 400.0 mg/kg/injection, schedule: Q01DX009 (ip), vehicle: Klucel (hydroxypropylcellulose) (HPC)) was 0 of 10.
With `Cn1nnc2c(C(N)=O)ncn2c1=O` the T/C (dose: 25.0 mg/kg/injection, schedule: Q01DX009 (ip), vehicle: saline) was 139 % of control, the T/C (dose: 25.0 mg/kg/injection, schedule: Q01DX009 (ip), vehicle: suspension in saline) was 125 % of control and the T/C [9] was 139 % of control. For the same compound, the survivor count [11] was 10 of 10, the survivor count [1] was 10 of 10 and the survivor count (dose: 400.0 mg/kg/injection, schedule: Q01DX009 (ip), vehicle: saline) was 9 of 10.
In the case of `Cc1oc2c(C)c3oc(=O)cc(C)c3cc2c1CCl`, the survivor count [6] is reported as 9 of 10, the survivor count [3] is reported as 8 of 10 and 10 of 10 and the survivor count [4] is reported as 0 of 10, 8 of 10, 9 of 10. For the same compound, the survivor count [8] was 6 of 10 and the survivor count [5] was 0 of 10.
In the case of `NCCc1ccc(O)c(O)c1`, the T/C (dose: 600.0 mg/kg/injection, schedule: Q01DX009 (ip), vehicle: saline) is reported as 137 % of control, the T/C (dose: 1200.0 mg/kg/injection, schedule: Q01DX009 (ip), vehicle: saline) is reported as 127 % of control and the survivor count (dose: 1600.0 mg/kg/injection, schedule: Q01DX009 (ip), vehicle: saline) is reported as 0 of 10.
For `COC1=C(OC)C(=O)C(C/C=C(\C)CC/C=C(\C)CC/C=C(\C)CC/C=C(\C)CC/C=C(\C)CC/C=C(\C)CC/C=C(\C)CC/C=C(\C)CC/C=C(\C)CCC=C(C)C)=C(C)C1=O`, the survivor count [5] was 10 of 10.
In the case of `O=CC(NC(=O)N(CCCl)N=O)C(O)C(O)C(O)CO` (centres undefined), the T/C (dose: 1.87 mg/kg/injection, schedule: Q01DX005 (ip), vehicle: saline) is reported as 131 % of control [9 of 10 alive on day 9], the T/C (dose: 1.87 mg/kg/injection, schedule: Q01DX009 (ip), vehicle: saline) is reported as 156 [9 of 10 alive], 162, 165, 169 [9 of 10 alive], 175, 188 % of control [8 of 10 alive] and the T/C (dose: 3.75 mg/kg/injection, schedule: Q01DX001 (ip), vehicle: saline) is reported as 129 % of control. For the same compound, the T/C (dose: 3.75 mg/kg/injection, schedule: Q01DX005 (ip), vehicle: saline) was 141 % of control, the T/C (dose: 3.75 mg/kg/injection, schedule: Q01DX009 (ip), vehicle: saline) was 193, 213, 217, 218, 224, 273 % of control and the T/C (dose: 7.5 mg/kg/injection, schedule: Q01DX001 (ip), vehicle: saline) was 131 % of control. The survivor count (dose: 7.5 mg/kg/injection, schedule: Q01DX005 (ip), vehicle: saline) was 9 of 10 on day 9, the T/C (dose: 7.5 mg/kg/injection, schedule: Q01DX009 (ip), vehicle: saline) was 117 [9 of 10 alive], 181, 189, 209, 340, 372 % of control [9 of 10 alive] and the T/C (dose: 15.0 mg/kg/injection, schedule: Q01DX001 (ip), vehicle: saline) was 149 % of control. The survivor count (dose: 15.0 mg/kg/injection, schedule: Q01DX005 (ip), vehicle: saline) was 9 of 10 on day 9, the survivor count (dose: 15.0 mg/kg/injection, schedule: Q01DX009 (ip), vehicle: saline) was 10 of 10 and the survivor count (dose: 30.0 mg/kg/injection, schedule: Q01DX001 (ip), vehicle: saline) was 10 of 10 on day 9. For the same compound, the survivor count (dose: 30.0 mg/kg/injection, schedule: Q01DX005 (ip), vehicle: saline) was 9 of 10 on day 9, the survivor count (dose: 30.0 mg/kg/injection, schedule: Q01DX009 (ip), vehicle: saline) was 7 of 10, 9 of 10, 10 of 10 and the survivor count (dose: 60.0 mg/kg/injection, schedule: Q01DX001 (ip), vehicle: saline) was 8 of 10 on day 9.
`CN(C)CC(=O)c1ccc(O)c(O)c1` was tested, and the survivor count [10] was 6 of 10.
`COc1ccccc1N=Nc1cc(S(=O)(=O)O)c2ccccc2c1O` was tested, and the survivor count [4] was 10 of 10 and the survivor count [5] was 0 of 10.
With `O=C1C(=O)c2cccnc2-c2ncccc21` the survivor count (dose: 0.75 mg/kg/injection, schedule: Q01DX009 (ip), vehicle: Klucel (hydroxypropylcellulose) (HPC)) was 10 of 10, the survivor count (dose: 0.78 mg/kg/injection, schedule: Q01DX009 (ip), vehicle: Klucel (hydroxypropylcellulose) (HPC)) was 8 of 10 and the survivor count (dose: 1.5 mg/kg/injection, schedule: Q01DX009 (ip), vehicle: Klucel (hydroxypropylcellulose) (HPC)) was 10 of 10. For the same compound, the T/C (dose: 6.25 mg/kg/injection, schedule: Q01DX009 (ip), vehicle: Klucel (hydroxypropylcellulose) (HPC)) was 134 % of control, the survivor count [7] was 1 of 10 and 4 of 10 and the survivor count (dose: 12.5 mg/kg/injection, schedule: Q01DX009 (ip), vehicle: Klucel (hydroxypropylcellulose) (HPC)) was 0 of 10.
